Patent US10940110B2, “Method and system for the treatment of chronic COPD with nebulized anticholinergic administrations” (Sunovion Respiratory Development Inc., priority 2008, dated 2021)
Where two headings read alike, the source gives them in different places.

What was measured:
clinical = settings: human, plasma, inhaled, 200 ug
[1] = plasma, 200 μg; for Cmax: COPD patients

Tmax (clinical): ~12 min
Cmax ([1]; Conventional (jet) Nebulizer): 0.076 ng/mL
AUC(0-inf) ([1]; Conventional Nebulizer): 0.07 ng·h/mL
AUC(0-t) ([1]; Conventional Nebulizer): 0.026 ng·h/mL
Cmax/AUC(0-t) ([1]; Conventional Nebulizer): 2.92 h⁻¹
Tmax ([1]; Conventional Nebulizer): about 8 min
Tmax ([1]; Conventional Nebulizer, listed as Glycopyrrolate): 8.2 min
AUC(0-inf) ([1]; High Efficiency Nebulizer): 0.615 ng·h/mL
AUC(0-t) ([1]; High Efficiency Nebulizer): 0.429 ng·h/mL
Cmax/AUC(0-t) ([1]; High Efficiency Nebulizer): 0.41 h⁻¹
Tmax ([1]; High Efficiency Nebulizer): 11.6 min
Cmax ([1]; High Efficiency Nebulizer (eFlow)): 0.177 ng/mL
Compound: C[N+]1(C)CCC(OC(=O)C(O)(c2ccccc2)C2CCCC2)C1 (stereo not drawn) [glycopyrrolate, 3-[(cyclopentylhydroxyphenylacetyl)oxy]-1,1-dimethylpyrrolidinium]
